In patent US20210238312:
Where cells or extracts were used, other partners may take part. For some assays here: A negative result means that nothing was seen under these conditions. Tags and fusion partners may be left off the protein sequences shown.

Columns and labels:
[1] = target: T1, CTCF (UniProt Q61164); assay: EMSA; details: anti-CTCF antibody gives super-shift; LightShift chemiluminescent EMSA kit; protein in an extract
T1 sequence (looked up, limits assumed): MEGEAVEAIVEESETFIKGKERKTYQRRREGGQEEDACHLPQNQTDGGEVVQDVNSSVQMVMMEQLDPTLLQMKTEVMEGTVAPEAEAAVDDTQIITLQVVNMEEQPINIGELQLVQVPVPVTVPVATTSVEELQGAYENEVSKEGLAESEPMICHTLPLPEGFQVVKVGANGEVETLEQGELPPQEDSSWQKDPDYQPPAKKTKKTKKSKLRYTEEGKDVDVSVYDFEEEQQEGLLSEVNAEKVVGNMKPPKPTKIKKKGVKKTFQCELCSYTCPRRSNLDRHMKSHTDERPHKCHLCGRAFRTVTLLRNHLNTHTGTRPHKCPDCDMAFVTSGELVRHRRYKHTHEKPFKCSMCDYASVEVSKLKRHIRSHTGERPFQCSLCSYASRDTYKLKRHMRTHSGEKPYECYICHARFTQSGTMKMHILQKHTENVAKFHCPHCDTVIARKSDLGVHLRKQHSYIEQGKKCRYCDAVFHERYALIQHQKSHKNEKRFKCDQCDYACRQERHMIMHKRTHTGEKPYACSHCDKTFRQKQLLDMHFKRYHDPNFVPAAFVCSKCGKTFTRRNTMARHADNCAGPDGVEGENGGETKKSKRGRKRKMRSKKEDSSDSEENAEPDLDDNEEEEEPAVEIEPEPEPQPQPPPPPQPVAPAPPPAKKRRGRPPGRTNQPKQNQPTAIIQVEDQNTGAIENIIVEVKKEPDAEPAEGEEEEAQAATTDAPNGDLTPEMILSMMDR

[2] = target: T1, CTCF; assay: competition with a labelled probe; details: 20- or 200-fold molar excess of unlabeled scrambled oligo could not compete with WT oligo for CTCF binding; protein in an extract; variant of WT VH81X-CBE EMSA oligo

Sequence | binding result [1] | binding result [2]
AAACCTCCTGCAGAGCATCCAGGACCAGCAGGGGGCGCGGAGAGCACACAGAGTTGTGAA (double strand) [WT VH81X-CBE EMSA oligo] | binds | –
AAACCTCCTGCAGAGCATCCGAGGCGAGCGGCCGCAGAGGAGAGCACACAGAGTTGTGAA (double strand) [scrambled VH81X-CBE EMSA oligo] | – | no binding
